Results deposited as PubChem BioAssay AID504784 (Drosophila RNAi Screening Center, 2011).

Assay: 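Genome-wide knock-down for genes giving too much or too little stored lipid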 (primary screen)
Cell system: Drosophila Kc167 embryonic cells
Reagents: long dsRNA against Drosophila genes, about 250 ng dsRNA per well
Timing: 4 days
Conditions: cells fed 400 µM oleic acid bound to BSA
Read-out: 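Microscope images give a droplet-to-nucleus area ratio, taken as log and converted to a screen-wide B-score; higher values mean greater lipid storage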
Scale: droplet/nuclear area B-score: higher = more stored lipid (overstorage)
In all, the deposit lists about 17,000 reagents; shown is an unselected part of those that have a named target and a result. 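Each column is one replicate's B-score; the combined score over replicates was not deposited, so single values may mislead.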 Names joined by + are all predicted targets of the reagent.

target gene | dsRNA | droplet/nuclear area B-score, replicate 1 | droplet/nuclear area B-score, replicate 2 | droplet/nuclear area B-score, replicate 3
Tim23 | DRSC21240 | -2.26 | 2.62 | –
CG31230 | DRSC22130 | -0.0266 | -1.05 | –
CG2003 | DRSC15411 | -0.393 | 1.23 | –
CG10903 | DRSC14281 | -0.554 | -0.0864 | –
CG17928 | DRSC02644 | 0.422 | 1.06 | –
nompC | DRSC03581 | -0.694 | 1.38 | –
pasi2 | DRSC16380 | -0.522 | -1.35 | –
Obp58c | DRSC04166 | 0.644 | 0.0571 | –
CG5969 | DRSC11789 | -1.6 | 0.33 | -0.435
Ubc7 | DRSC20299 | 2.29 | 1.13 | –
park | DRSC11618 | -0.205 | 0.0513 | 1.8
CG11398 | DRSC18625 | -0.301 | -1.26 | –
ATPsynD | DRSC14093 | 3.01 | 2.42 | –
HnRNP-K | DRSC07585 | 0.617 | 4.01 | 0.266
HnRNP-K | DRSC22734 | -3.09 | 0.901 | –
CG13791 (retired record) | DRSC02295 | -1.57 | 0.46 | –
Cyp12e1 | DRSC16622 | 0.216 | -0.242 | –
CG31198 | DRSC15891 | -1.4 | 3.44 | –
Arpc3B | DRSC20126 | 1.01 | 0.00488 | –
CG30338 | DRSC05166 | 0.135 | -0.0731 | –
ND-B12 | DRSC04060 | 0.433 | 1.51 | –
Pld | DRSC04854 | 0.134 | 0.671 | –
Creld | DRSC00308 | -0.424 | -3.66 | –
CG31686 (retired record) | DRSC00102 | 0.157 | -0.399 | –
Ir87a | DRSC14836 | 0.852 | -0.49 | –
CG42288 | DRSC06381 | 0.045 | 0.965 | –
CG17707 | DRSC20650 | 0.37 | -0.631 | –
EMC6 | DRSC14386 | -1.04 | 1.01 | –
HisCl1 | DRSC14945 | 0.745 | -4.97 | –
CG14052 | DRSC17907 | 3.07 | -0.225 | –
CG14052 | DRSC18192 | 0.842 | 0.0158 | –
Ssl2 | DRSC14395 | 0.39 | 0.707 | –
Ssl2 | DRSC22796 | -0.107 | 1.37 | –
Fas3 | DRSC03326 | 3.71 | 2.37 | –
Fas3 | DRSC22776 | -1.82 | -0.0119 | –
CG4596 | DRSC15608 | -0.645 | -1.19 | –
CG8414 | DRSC07168 | -0.25 | 1.13 | –
jeb | DRSC06305 | -0.706 | -1.96 | –
jeb | DRSC06307 | 0.0183 | 0.694 | –
Syt12 | DRSC19359 | 1.25 | 0.869 | -0.692
IFT43 | DRSC02892 | -0.142 | -0.809 | –
CG10177 | DRSC14201 | 0.669 | -0.437 | –
CG9154 | DRSC03150 | -0.185 | 0.0504 | –
mrt | DRSC15484 | 0.0493 | 0.73 | –
SdhBL | DRSC20039 | 0.386 | 2.19 | –
Grl65a | DRSC08837 | -0.806 | -0.632 | –
Hesr | DRSC19965 | -0.223 | -0.381 | –
plum | DRSC16054 | – | -0.0199 | –
scb | DRSC05542 | 0.529 | -0.488 | –
scb | DRSC07678 | 0.795 | -1.73 | –
Tmem63 | DRSC06063 | -0.0844 | -0.907 | –
CG1371 | DRSC06409 | 1.03 | 0.506 | –
cag | DRSC07587 | -2.96 | 0.0836 | –
hd | DRSC12316 | -0.0959 | -0.899 | –
FoxL1 | DRSC08717 | -1.69 | -0.039 | –
Ddx1 | DRSC11862 | 0.167 | -0.102 | -0.537
ldbr | DRSC10933 | -0.0326 | 0.426 | –
Cep89 | DRSC07110 | 0.343 | 0.0398 | –
CG1738 | DRSC19772 | -0.904 | 0.602 | 0.859
Nmd3 | DRSC22834 | 2.75 | 0.806 | –
CG31460 | DRSC14370 | 1.79 | -0.322 | –
CG42812 + CG42811 | DRSC15367 | -1.46 | – | –
CG42812 + CG42811 | DRSC15368 | -0.0125 | -1.34 | –
strat | DRSC03069 | -0.0247 | -4.99 | –
Pgk | DRSC00769 | 1.23 | 0.0686 | –
Pgk | DRSC23340 | 1 | 2.56 | –
CR11235 | DRSC20480 | 1.53 | -0.0153 | –
AIF | DRSC00696 | 4.22 | 10.6 | –
CG7841 | DRSC10922 | 2.13 | 0.00354 | –
SmydA-5 | DRSC04867 | 0.576 | -1.15 | –
eEFSec | DRSC04571 | -0.452 | -0.014 | –
CG44422 | DRSC18885 | -0.633 | 0.478 | –
CG44422 | DRSC19380 | 2.53 | -0.0274 | -0.165
CG44422 | DRSC19480 | 2.4 | 0.359 | 1.33
CG44422 | DRSC23284 | 0.633 | 0.081 | –
CG9897 + asRNA:CR42742 | DRSC04595 | 0.248 | -0.0596 | –
CG30377 | DRSC06477 | -2.01 | 0.526 | –
CG30377 | DRSC06799 | -0.383 | 0.054 | –
CG10154 | DRSC09707 | 1.86 | 0.928 | –
CG17780 + CG17781 | DRSC15266 | 0.905 | -1.33 | –
morgue | DRSC00264 | 0.0353 | 0.966 | –
CG10914 | DRSC06010 | 1.29 | 1.63 | –
CG32945 | DRSC12014 | -0.3 | 1.04 | –

Records listed so far whose gene name begins with F or f:
target gene | dsRNA | droplet/nuclear area B-score, replicate 1 | droplet/nuclear area B-score, replicate 2 | droplet/nuclear area B-score, replicate 3
Fas3 | DRSC03326 | 3.71 | 2.37 | –
Fas3 | DRSC22776 | -1.82 | -0.0119 | –
FoxL1 | DRSC08717 | -1.69 | -0.039 | –
